Sequences of proteins named here, by UniProt entry; tags and fusion partners are left off. A change or cut given only in a name is not applied to a line headed by its entry. Residues count along the entry.
UniProt Q9JXE1: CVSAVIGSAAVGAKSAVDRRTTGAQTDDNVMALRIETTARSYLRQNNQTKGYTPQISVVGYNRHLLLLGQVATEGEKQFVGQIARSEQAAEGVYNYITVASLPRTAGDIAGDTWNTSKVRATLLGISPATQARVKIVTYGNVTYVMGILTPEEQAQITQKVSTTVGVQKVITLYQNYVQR
UniProt Q9JZJ0: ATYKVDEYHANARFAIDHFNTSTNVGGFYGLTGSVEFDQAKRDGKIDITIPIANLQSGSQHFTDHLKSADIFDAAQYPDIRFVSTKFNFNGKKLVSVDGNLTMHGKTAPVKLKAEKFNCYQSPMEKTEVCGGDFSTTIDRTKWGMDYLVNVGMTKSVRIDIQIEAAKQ
UniProt P26022, residues 18-381: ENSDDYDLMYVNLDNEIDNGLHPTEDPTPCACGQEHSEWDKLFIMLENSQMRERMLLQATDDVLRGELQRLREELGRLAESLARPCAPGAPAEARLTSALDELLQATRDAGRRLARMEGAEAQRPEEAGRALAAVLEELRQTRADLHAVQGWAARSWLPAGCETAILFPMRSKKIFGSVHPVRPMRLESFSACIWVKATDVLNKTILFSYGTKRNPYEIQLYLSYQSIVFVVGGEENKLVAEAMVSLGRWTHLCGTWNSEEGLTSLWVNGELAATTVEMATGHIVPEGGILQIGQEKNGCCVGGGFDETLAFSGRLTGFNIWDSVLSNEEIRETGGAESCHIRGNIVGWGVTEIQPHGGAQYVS
UniProt P48759, residues 18-381: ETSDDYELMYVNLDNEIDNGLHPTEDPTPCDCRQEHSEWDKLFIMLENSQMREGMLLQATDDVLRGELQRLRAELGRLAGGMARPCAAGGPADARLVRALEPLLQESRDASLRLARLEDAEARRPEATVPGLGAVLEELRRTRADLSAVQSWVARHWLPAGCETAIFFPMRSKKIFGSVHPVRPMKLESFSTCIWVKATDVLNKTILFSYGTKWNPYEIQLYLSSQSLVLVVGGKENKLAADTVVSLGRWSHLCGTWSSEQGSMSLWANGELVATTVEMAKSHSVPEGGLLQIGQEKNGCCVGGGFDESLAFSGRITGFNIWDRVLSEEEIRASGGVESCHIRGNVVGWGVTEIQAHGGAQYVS
UniProt P02743, residues 20-223: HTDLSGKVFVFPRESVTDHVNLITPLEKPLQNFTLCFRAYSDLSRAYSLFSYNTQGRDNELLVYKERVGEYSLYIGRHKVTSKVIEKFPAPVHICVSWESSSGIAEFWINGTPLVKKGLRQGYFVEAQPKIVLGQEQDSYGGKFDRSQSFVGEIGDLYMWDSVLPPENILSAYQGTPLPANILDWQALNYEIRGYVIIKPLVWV

According to article PMC4364741:

Tests used:
[1] = molecular target: Genome-derived Neisserial antigen GNA2091 (Neisseria meningitidis) (UniProt Q9JXE1); assay: ELISA; plastic wells coated with the recombinant Nm proteins (1 μg/well), incubated with human or murine PTX3, human CRP or SAP (22 pmoles) for 1 h at 37°C, then antibodies; A450; both purified
[2] = molecular target: Genome-derived Neisserial antigen GNA1030 (Neisseria meningitidis) (UniProt Q9JZJ0); assay: as above
[3] = molecular target: T1, Genome-derived Neisserial antigen GNA0667 (Neisseria meningitidis) (UniProt Q9K0E2); assay: ELISA; microtiter plate; N-terminal or C-terminal PTX3 domains (22 pmoles) on coated GNA0667, GNA1030 and GNA2091; percentage of binding compared to full length PTX3; both purified
T1 sequence: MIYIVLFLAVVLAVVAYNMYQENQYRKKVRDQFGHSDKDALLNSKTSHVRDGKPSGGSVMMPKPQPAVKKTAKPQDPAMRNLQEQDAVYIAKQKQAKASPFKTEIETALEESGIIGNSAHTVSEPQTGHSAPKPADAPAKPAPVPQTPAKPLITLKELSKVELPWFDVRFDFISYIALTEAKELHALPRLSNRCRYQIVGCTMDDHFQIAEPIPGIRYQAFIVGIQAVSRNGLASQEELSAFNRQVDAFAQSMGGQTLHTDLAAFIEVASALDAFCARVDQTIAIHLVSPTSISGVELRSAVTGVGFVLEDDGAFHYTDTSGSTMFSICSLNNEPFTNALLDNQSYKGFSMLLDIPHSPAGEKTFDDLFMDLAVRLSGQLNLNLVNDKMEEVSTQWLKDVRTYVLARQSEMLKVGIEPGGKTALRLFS

[4] = molecular target: Recombinant human long pentraxin 3 (PTX3) (human) (UniProt P26022); assay: ELISA; plates coated with human PTX3 (1 μg/well), incubated with Nm antigens (1 μg/well), revealed with specific polyclonal antibodies (1:1000) and HRP-linked secondary antibody; A450; both purified
[5] = molecular target: Genome-derived Neisserial antigen GNA2091 (Neisseria meningitidis) (UniProt Q9JXE1); assay: ELISA; microtiter plate; different doses of bPTX3 on coated GNA0667, GNA1030 and GNA2091 (1 μg/well); both purified
[6] = molecular target: Genome-derived Neisserial antigen GNA1030 (Neisseria meningitidis) (UniProt Q9JZJ0); assay: as above
[7] = molecular target: Genome-derived Neisserial antigen GNA2091 (Neisseria meningitidis) (UniProt Q9JXE1); assay: ELISA; microtiter plate; PTX3 on coated Nm antigens in the presence or not of calcium (10 mM EGTA); both purified
[8] = molecular target: Genome-derived Neisserial antigen GNA1030 (Neisseria meningitidis) (UniProt Q9JZJ0); assay: as above
[9] = molecular target: Genome-derived Neisserial antigen GNA2091 (Neisseria meningitidis) (UniProt Q9JXE1); assay: ELISA; microtiter plate; N-terminal or C-terminal PTX3 domains (22 pmoles) on coated GNA0667, GNA1030 and GNA2091; percentage of binding compared to full length PTX3; both purified
[10] = molecular target: Genome-derived Neisserial antigen GNA1030 (Neisseria meningitidis) (UniProt Q9JZJ0); assay: as above

For “Recombinant murine PTX3 (from UniProt P48759 18-381)”, the binding [1] was “binds” and the binding [2] was “binds”.
For “Recombinant human PTX3 C-terminal domain (C-PTX3) (domain or fragment)”, the binding [3] was “no binding (tested: 22 pmoles)”.
In the case of “Serum amyloid P component (from UniProt P02743 20-223)”, the binding [1] is reported as “binds” and the binding [2] is reported as “binds”.
For “Genome-derived Neisserial antigen GNA2091 (from UniProt Q9JXE1)”, the binding [4] was “binds”.
With “Biotinylated human PTX3 (bPTX3) (from UniProt P26022 18-381)” the binding [5] was “binds”, the binding [6] was “binds” and the binding [7] was “binds”. For the same substance, the binding [8] was “binds”.
In the case of “Recombinant human PTX3 N-terminal domain (N-PTX3) (domain or fragment)”, the binding [3] is reported as “binds”.
“Recombinant human long pentraxin 3 (PTX3) (from UniProt P26022 18-381)” was tested, and the binding [9] was “binds”, the binding [10] was “binds” and the binding [1] was “binds”. For the same substance, the binding [2] was “binds”.
With “Genome-derived Neisserial antigen GNA1030 (from UniProt Q9JZJ0)” the binding [4] was “binds”.

No constants are given. Whether binding was seen depends on the method and setting. A result given as binding can be weak or reduced; the word gives no strength.
